# Experimental data as given in article PMC7854685, “Histone Parylation factor 1 contributes to the inhibition of PARP1 by cancer drugs” (Nature Communications, 2021).
# Protein sequences, listed by entry. Tags and fused reporters are not part of them.
# UniProt P09874, whole entry: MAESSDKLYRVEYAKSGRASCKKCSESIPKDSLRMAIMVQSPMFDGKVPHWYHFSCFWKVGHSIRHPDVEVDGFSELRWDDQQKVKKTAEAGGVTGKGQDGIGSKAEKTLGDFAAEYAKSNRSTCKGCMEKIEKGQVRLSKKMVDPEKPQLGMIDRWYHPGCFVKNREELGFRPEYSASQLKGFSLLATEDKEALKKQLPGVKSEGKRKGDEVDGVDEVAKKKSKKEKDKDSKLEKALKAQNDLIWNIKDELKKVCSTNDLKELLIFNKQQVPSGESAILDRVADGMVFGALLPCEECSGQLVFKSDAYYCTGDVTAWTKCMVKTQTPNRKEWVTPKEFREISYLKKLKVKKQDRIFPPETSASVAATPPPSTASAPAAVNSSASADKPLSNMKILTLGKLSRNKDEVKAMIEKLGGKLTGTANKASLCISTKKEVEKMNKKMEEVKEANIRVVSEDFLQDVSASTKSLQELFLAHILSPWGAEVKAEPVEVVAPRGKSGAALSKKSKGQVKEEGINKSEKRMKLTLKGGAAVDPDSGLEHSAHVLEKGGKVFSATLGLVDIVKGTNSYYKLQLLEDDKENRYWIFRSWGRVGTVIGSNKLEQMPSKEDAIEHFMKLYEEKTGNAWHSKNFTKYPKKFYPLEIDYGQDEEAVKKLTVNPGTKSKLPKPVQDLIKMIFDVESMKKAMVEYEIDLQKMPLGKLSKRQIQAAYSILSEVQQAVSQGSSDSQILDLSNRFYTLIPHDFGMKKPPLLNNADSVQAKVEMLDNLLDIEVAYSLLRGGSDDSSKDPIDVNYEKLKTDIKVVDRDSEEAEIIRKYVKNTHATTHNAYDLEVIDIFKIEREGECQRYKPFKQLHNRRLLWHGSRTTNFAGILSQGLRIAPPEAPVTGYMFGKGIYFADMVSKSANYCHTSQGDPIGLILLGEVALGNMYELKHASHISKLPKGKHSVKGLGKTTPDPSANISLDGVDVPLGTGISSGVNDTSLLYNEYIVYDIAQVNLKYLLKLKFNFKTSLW
# A number of entries come with more than one value. They are shown here; other results are not. An entry can have further records. Results that share an entry seem to repeat one measurement; a mean can stand among them.
# Biological target: PARP1 (Homo sapiens, UniProt P09874)
# Assay: Release of fluorescently labeled p18mer DNA (fluorescence polarization) upon NAD+ addition, KI determination for PARPi, with or without HPF1;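 further: PARP1 bound to fluorescein-tagged DNA and preincubated with inhibitor, then high NAD+ added, drop in fluorescence polarization tracked as the DNA dissociates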
# Format: biochemical
# Settings: PARP1, without HPF1, single experiment
structure (smiles),measurement,value
COC1CCN(C(=O)c2cc(Cc3n[nH]c(=O)c4ccccc34)ccc2F)CC1,koff (est),"≥ 0.00347 s-1, ≥ 0.00165 s-1, ≥ 0.00248 s-1, ≥ 0.00267 s-1, ≥ 0.00578 s-1"
same,t1/2est,"200, 420, 280, 260, 120 s"
